Results are given in words; binding and its absence hold for the method and conditions named. In cells and extracts the contact can be indirect. For part of these data: A result given as binding can be weak or reduced; the word gives no strength.
Tests used:
[1] = molecular target: microtubules stabilized by Taxol (human (endogenous in HeLa)); experiment: co-sedimentation; microtubule-pelleting assay: mitotic HeLa cells lysed in PEM buffer with 20 uM Taxol, 1% NP-40 and 1 mM GTP, pellet and supernatant immunoblotted; with or without BI-2536 or reversine
[2] = molecular target: GST-tagged Plk1, C-terminal fragment containing PBD (human); experiment: pull-down; GST-tagged Plk1 constructs bound to glutathione-Sepharose beads incubated with mitotic cell lysates; washes with lysis buffer containing 500 mM and 150 mM NaCl; immunoblotting; only the target purified
[3] = molecular target: GST-tagged Plk1, N-terminal fragment (human); experiment: as above

B1: Mps1 (endogenous) (protein, UniProt P33981 1-857)
chain: MESEDLSGRELTIDSIMNKVRDIKNKFKNEDLTDELSLNKISADTTDNSGTVNQIMMMANNPEDWLSLLLKLEKNSVPLSDALLNKLIGRYSQAIEALPPDKYGQNESFARIQVRFAELKAIQEPDDARDYFQMARANCKKFAFVHISFAQFELSQGNVKKSKQLLQKAVERGAVPLEMLEIALRNLNLQKKQLLSEEEKKNLSASTVLTAQESFSGSLGHLQNRNNSCDSRGQTTKARFLYGENMPPQDAEIGYRNSLRQTNKTKQSCPFGRVPVNLLNSPDCDVKTDDSVVPCFMKRQTSRSECRDLVVPGSKPSGNDSCELRNLKSVQNSHFKEPLVSDEKSSELIITDSITLKNKTESSLLAKLEETKEYQEPEVPESNQKQWQSKRKSECINQNPAASSNHWQIPELARKVNTEQKHTTFEQPVFSVSKQSPPISTSKWFDPKSICKTPSSNTLDDYMSCFRTPVVKNDFPPACQLSTPYGQPACFQQQQHQILATPLQNLQVLASSSANECISVKGRIYSILKQIGSGGSSKVFQVLNEKKQIYAIKYVNLEEADNQTLDSYRNEIAYLNKLQQHSDKIIRLYDYEITDQYIYMVMECGNIDLNSWLKKKKSIDPWERKSYWKNMLEAVHTIHQHGIVHSDLKPANFLIVDGMLKLIDFGIANQMQPDTTSVVKDSQVGTVNYMPPEAIKDMSSSRENGKSKSKISPKSDVWSLGCILYYMTYGKTPFQQIINQISKLHAIIDPNHEIEFPDIPEKDLQDVLKCCLKRDPKQRISIPELLAHPYVQIQTHPVNQMAKGTTEEMKYVLGQLVGLNSPNSILKAAKTLYEHYSGGESHNSSSSKTFEKKRGKK
**Q.** B1 was tested. Which binding [1] did it give?
**A.** binds

**Q.** What about the binding [2] of the same binder?
**A.** no binding

**Q.** And the binding [3]?
**A.** no binding

Reference: PMC5562746
